These are yes or no findings as the source states them, for the method shown. Some entries that bind do so weakly or less than the wild type.
Target: KaiC-EE (S431E, T432E) (UniProt Q79PF4)
Experiment: cryo-EM structure

B1: KaiC-EE (S431E, T432E) (enzyme)
chain: EHQAIAKMRTMIEGFDDISHGGLPIGRSTLVSGTSGTGKTLFSIQFLYNGIIEFDEPGVFVTFEETPQDIIKNARSFGWDLAKLVDEGKLFILDASPDPEGQEVVGGFDLSALIERINYAIQKYRARRVSIDSVTSVFQQYDASSVVRRELFRLVARLKQIGATTVMTTERIEEYGPIARYGVEEFVSDNVVILRNVLEGERRRRTLEILKLRGTSHMKGEYPFTITDHGINIFPLGAMRLTQRSSNVRVSSGVVRLDEMCGGGFFKDSIILATGATGTGKTLLVSRFVENACANKERAILFAYEESRAQLLRNAYSWGMDFEEMERQNLLKIVCAYPESAGLEDHLQIIKSEINDFKPARIAIDSLSALARGVSNNAFRQFVIGVTGYAKQEEITGLFTNTSDQFMGAHSITDSHIEEITDTIILLQYVEIRGEMSRAINVFKMRGSWHDKAIREFMISDKGPDIKDSFRNFERIISGSPTRI
  binding: binds
